Experimental data taken from PMC2845650.
Results are given in words; binding and its absence hold for the method and conditions named. In cells and extracts the contact can be indirect.

Protein sequences, listed by entry. Tags and fused reporters are not part of them. Lines headed by an entry give the natural chain unless they say otherwise; changes in a name come on top. Chains listed by the source or under a name are the forms on record and can include a tag or linker.
human Coxsackie and Adenovirus Receptor, exon 8 isoform (hCAR^Ex8) (P78310, form named): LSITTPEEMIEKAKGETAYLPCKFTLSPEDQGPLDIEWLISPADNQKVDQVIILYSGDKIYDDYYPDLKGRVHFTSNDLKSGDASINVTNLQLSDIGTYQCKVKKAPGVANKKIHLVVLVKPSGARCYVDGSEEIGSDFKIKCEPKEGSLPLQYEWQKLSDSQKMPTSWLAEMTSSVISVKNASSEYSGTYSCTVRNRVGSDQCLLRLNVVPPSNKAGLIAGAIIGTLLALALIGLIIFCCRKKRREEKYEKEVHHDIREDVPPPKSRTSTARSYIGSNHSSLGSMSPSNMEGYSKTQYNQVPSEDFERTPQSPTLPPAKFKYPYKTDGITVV
UniProt Q9NRD5: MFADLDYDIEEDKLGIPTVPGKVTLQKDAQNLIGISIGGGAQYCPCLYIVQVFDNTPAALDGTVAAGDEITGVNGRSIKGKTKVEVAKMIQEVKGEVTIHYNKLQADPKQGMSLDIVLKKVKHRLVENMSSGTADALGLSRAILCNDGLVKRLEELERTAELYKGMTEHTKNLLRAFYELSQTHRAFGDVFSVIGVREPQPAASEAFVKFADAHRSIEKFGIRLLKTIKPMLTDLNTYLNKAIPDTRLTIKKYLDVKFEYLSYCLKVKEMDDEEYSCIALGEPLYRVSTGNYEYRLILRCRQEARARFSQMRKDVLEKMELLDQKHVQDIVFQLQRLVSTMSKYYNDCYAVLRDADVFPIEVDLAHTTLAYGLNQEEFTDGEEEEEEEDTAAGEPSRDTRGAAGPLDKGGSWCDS

Biological target: human Coxsackie and Adenovirus Receptor, exon 8 isoform (hCAR^Ex8) (human) (UniProt P78310)
Assay: co-IP; COS-7 cells co-transfected by electroporation, lysed 2 days later (50mM Tris-HCl pH 7.5, 137mM NaCl, 1% Triton X-100, 5mM EDTA, 1mM EGTA); supernatant with antibody (RmcB against the hCAR extracellular domain, GFP antibody, control MopC) at 4°C overnight, protein A or G sepharose; Western blot

binding: no binding
Substance: PICK1-GFP (from UniProt Q9NRD5 1-415)
